Assay results taken from the supplement of paper PMC7666118.
The other results are listed elsewhere or left out.

Chains of the proteins cited; added tags and fusions are not shown. Lines headed by an entry give the natural chain unless they say otherwise; changes in a name come on top.
UniProt Q9NRG9: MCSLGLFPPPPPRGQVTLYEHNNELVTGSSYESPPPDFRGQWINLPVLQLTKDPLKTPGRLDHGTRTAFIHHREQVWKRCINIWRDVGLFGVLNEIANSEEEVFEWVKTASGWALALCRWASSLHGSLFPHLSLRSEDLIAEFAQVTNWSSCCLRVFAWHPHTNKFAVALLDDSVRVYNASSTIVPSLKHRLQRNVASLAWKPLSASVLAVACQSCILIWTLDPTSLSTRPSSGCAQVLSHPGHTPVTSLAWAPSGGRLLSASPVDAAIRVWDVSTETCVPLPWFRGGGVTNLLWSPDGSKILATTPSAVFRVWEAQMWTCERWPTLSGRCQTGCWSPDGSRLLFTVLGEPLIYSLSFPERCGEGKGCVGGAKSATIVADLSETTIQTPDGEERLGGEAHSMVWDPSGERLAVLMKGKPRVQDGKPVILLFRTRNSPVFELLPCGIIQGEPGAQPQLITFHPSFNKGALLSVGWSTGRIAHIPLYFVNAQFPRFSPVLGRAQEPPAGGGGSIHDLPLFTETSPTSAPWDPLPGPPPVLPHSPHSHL
UniProt Q96CM8: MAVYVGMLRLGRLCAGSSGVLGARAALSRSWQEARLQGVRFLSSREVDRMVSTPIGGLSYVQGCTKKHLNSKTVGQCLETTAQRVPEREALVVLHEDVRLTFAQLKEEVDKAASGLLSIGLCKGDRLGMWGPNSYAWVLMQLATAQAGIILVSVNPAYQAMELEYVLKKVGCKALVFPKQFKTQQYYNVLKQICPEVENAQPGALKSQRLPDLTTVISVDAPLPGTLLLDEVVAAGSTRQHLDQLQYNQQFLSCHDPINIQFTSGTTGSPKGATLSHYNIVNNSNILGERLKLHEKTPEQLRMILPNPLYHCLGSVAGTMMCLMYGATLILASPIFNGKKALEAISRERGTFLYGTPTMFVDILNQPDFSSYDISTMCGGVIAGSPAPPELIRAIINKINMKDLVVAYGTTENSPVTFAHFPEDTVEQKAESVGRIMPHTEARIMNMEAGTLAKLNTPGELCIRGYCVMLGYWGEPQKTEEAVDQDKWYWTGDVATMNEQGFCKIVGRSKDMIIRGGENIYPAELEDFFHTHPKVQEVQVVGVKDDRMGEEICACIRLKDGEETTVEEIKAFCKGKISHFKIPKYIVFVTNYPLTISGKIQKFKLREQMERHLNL
UniProt Q15057: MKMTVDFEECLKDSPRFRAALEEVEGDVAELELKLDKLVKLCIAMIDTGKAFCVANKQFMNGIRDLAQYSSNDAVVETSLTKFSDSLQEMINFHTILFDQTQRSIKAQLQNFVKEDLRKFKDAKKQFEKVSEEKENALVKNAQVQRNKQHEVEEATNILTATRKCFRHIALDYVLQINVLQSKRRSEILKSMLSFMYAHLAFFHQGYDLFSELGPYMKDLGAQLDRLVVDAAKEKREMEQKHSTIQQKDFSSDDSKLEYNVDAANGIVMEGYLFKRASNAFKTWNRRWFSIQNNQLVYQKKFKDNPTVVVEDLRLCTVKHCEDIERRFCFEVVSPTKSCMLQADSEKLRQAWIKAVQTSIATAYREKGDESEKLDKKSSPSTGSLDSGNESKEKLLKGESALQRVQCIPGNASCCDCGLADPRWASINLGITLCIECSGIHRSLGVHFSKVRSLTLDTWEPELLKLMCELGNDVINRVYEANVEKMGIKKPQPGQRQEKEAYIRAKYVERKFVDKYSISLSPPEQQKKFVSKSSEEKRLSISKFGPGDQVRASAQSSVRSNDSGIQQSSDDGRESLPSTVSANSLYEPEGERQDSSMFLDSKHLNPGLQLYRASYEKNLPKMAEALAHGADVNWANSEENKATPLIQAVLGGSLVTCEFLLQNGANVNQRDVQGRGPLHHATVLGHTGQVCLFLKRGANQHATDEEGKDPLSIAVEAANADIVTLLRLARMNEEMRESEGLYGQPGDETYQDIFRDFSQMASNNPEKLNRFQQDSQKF

The targets below were run with COc1ccc(Cn2ccc3cc(C)c(C(=O)NO)cc32)cc1 (assay: dose-dependent thermal stabilisation call (2D-TPP, DLPTP, 10% FDR) (binary (1 = stabilised)); higher = stabilised by the compound). Settings: system: HL-60 intact cells; concentration range 0.04-10 µM.
Method: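 2D thermal proteome profiling in intact HL-60 cells treated with BRD-3811 (0, 0.04, 0.29, 2, 10 uM) for 90 min at 37 C, then heated 3 min at one of 12 temperatures (42-63.9 C). Soluble protein was quantified by TMT10 MS. The value is the DLPTP call of the paper: dose-dependent thermal stabilisation over all temperatures at 10% FDR (F-test of a dose-response against a flat model); one experiment, one call per tested protein.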
In the case of AAAS (UniProt Q9NRG9), the “dose-dependent thermal stabilisation call” value is reported as inactive: 0.
In the case of ACSF2 (UniProt Q96CM8), the “dose-dependent thermal stabilisation call” value is reported as inactive: 0.
With ACAP2 (UniProt Q15057) the “dose-dependent thermal stabilisation call” value was inactive: 0.
